Data published in patent US9226912B2, “Acetyltanshinone IIA (ATA) as anticancer agent” (Nanyang Technological University, priority 2011, dated 2016).

Assays:
Experiment in all cases: Growth inhibition at 72 h by MTT assay
BT474 = settings: Homo sapiens, BT-474, 72 h
T47D = format: cell-based; settings: Homo sapiens, T47D (ER+)
MDA-MB-231 = settings: Homo sapiens, MDA-MB-231, 72 h

SMILES: CC/C(=C(\c1ccccc1)c1ccc(OCCN(C)C)cc1)c1ccccc1 [tamoxifen, reference compound]
- IC50 (BT474): 6.2 ± 0.1 µM
- IC50 (T47D): 9.4 ± 0.6 µM
- IC50 (MDA-MB-231): 21.8 ± 2.9 µM
